This note sets out measurements from paper PMC7819943, “Rice protein-binding microarrays: a tool to detect cis-acting elements near promoter regions in rice”.

The other results are listed elsewhere or left out.

The experiment concerns the target T1, OsSMF1 (Oryza sativa, UniProt Q6ZLB0 1-436).
T1 sequence: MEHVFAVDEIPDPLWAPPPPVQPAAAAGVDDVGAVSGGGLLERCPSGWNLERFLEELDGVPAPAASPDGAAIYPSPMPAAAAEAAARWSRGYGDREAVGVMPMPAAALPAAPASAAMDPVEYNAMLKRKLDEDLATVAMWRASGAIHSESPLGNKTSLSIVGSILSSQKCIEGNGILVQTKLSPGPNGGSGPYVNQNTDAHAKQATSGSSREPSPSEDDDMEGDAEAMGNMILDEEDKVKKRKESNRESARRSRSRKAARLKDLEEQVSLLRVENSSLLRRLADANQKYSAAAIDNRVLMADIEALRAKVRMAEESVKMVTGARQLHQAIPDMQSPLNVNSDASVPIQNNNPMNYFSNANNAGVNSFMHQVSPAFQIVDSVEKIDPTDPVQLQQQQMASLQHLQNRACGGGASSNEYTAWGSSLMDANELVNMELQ
Kind of experiment: protein-binding microarray (RPBM); PBS, 2% BSA, 51.3 ng/ul salmon testes DNA, 50 uM zinc acetate, 200 nM TF, 25 C, 1 h; high values mean tight binding. Conditions: protein: recombinant; tags: N-terminal polyhistidine and DsRed monomer fusion (pET32a); chain copies: 2; label: CyDye5-dUTP incorporated in the synthesized complementary strand; 3' TTTTT single-stranded linker to array surface; dsDNA, one strand shown. The method, boiled down: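 Binding signal is reported as fluorescence intensity per feature (arbitrary units) from an Axon 4000B scanner. Incubation used 200 nM of each Ni–NTA-purified, N-terminally polyhistidine- and DsRed-fused transcription factor from E. coli BL21-CodonPlus on a double-stranded custom Agilent array for 1 h at 25 °C, with 50 µM zinc acetate in the buffer, followed by washing.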
Take “AGTAGCTCAGCCTCAGATGAAATATCAGCAGATGAGGTCACGGAGTCACCTAGTGCAG”: the binding signal was 6480 fluorescence intensity (a.u.).
With “TGGATGATTTTGAAGGCAATGTGGACAAGGACTGGGGTGCCGGAGTCACCTAGTGCAG”, the binding signal is 19600 fluorescence intensity (a.u.).
For the sequence “TAACACGTCGCCGCGTCGTTTCTTGTTTCCCTCTGTTTATCGGAGTCACCTAGTGCAG”, the binding signal is 3900 fluorescence intensity (a.u.).
Consider “CCTTCGTTGACGAAGCATGTGATCCCTTCCTACAAGGCTCCGGAGTCACCTAGTGCAG”, for which the binding signal is 4190 fluorescence intensity (a.u.).
Take “CCAGCGTCGAGTTCCACCCGCAGTGCGTCACGAACGCGCCCGGAGTCACCTAGTGCAG”: the binding signal is 5900 fluorescence intensity (a.u.).
As for “ACTGCTGACGGATTTCAGATCACTACTCCTACGCCTTACACGGAGTCACCTAGTGCAG”, the binding signal was 3220 fluorescence intensity (a.u.).
On to “TATTGATCTTGCTTCTTGGCCCCTTTACGTCACACGTTGACGGAGTCACCTAGTGCAG”, for which the binding signal was 6270 fluorescence intensity (a.u.).
In the case of “CTGCTTGAATCCTTCTCGCTGAGCTGGCCTGCAGCCTTTTCGGAGTCACCTAGTGCAG”, the binding signal is 7190 fluorescence intensity (a.u.).
Take “TTTATAGTGTAACGGTCGGTGTCAGACGACACCGATGATTCGGAGTCACCTAGTGCAG”: the binding signal is 3200 fluorescence intensity (a.u.).
“TTGATATTTTGCATTTGCGTGCAGCCTGTACAAAATTCTGCGGAGTCACCTAGTGCAG”: the binding signal was 26400 fluorescence intensity (a.u.).
With “GAAGGCGGTTTTGACTGATGTGGCGCTTACGTGGCTGGTTCGGAGTCACCTAGTGCAG” the figure was 19500 fluorescence intensity (a.u.); with “GCAAAGCAAAGCACCAGGGCAGGGGAGGGGCAGGGAGTTTCGGAGTCACCTAGTGCAG”, 3180 fluorescence intensity (a.u.); with “ACATCAACGTGTCATACACACACAACTTTTCAGTCACATCCGGAGTCACCTAGTGCAG”, 4240 fluorescence intensity (a.u.).
As for “TCACTCATGCAGAGTCACAGCTTGTATAGTTGTAATGCATCGGAGTCACCTAGTGCAG”, the binding signal is 5370 fluorescence intensity (a.u.).
For “CATGGAAGCAGCGTGAGTGGCCTGATCATGGCGTTGTCTTCGGAGTCACCTAGTGCAG”, the binding signal is 3690 fluorescence intensity (a.u.).
With “CCATCGGAACGACACGTCGGATCGTCGGCGTCGGCAGCAGCGGAGTCACCTAGTGCAG” the figure was 9230 fluorescence intensity (a.u.); with “ACGGTCCTGCGTCATCCTTCCGTCACCAGTTTCTTGCCGACGGAGTCACCTAGTGCAG”, 20400 fluorescence intensity (a.u.); with “GCCAGTGACATTTGGGTCACACGCTGACTCAGCCGCCACGCGGAGTCACCTAGTGCAG”, 19300 fluorescence intensity (a.u.).
On to “ATCTTGACAAATTTGCTTGTAGTTTGTAGAATTTGCTGTTCGGAGTCACCTAGTGCAG”, for which the binding signal is 21500 fluorescence intensity (a.u.).
For “GCCGAAACGCGAAGTGACAGTGACAAGGGAAGGACGGCCCCGGAGTCACCTAGTGCAG”, the binding signal is 3220 fluorescence intensity (a.u.).
For “GCTTGCGCTGCATCACGGAAACATCCGATTGTGCATCACGCGGAGTCACCTAGTGCAG”, the binding signal was 3800 fluorescence intensity (a.u.).
For the sequence “GGGATTAGTGGGTAGGGAGGGATTCATCCCCAACAGGGATCGGAGTCACCTAGTGCAG”, the binding signal is 3140 fluorescence intensity (a.u.).
Regarding “CCAAACATGGGCCAAATTCAATTTTAGCAAGGCACGTACCCGGAGTCACCTAGTGCAG”, the binding signal was 3140 fluorescence intensity (a.u.).
On to “ATCTTAAATACTACTAGAAATTAACGGAGACTAAGGCTTGCGGAGTCACCTAGTGCAG”, for which the binding signal was 26500 fluorescence intensity (a.u.).
In the case of “TTCAGGTGGCCACTTCCTGCCACGTCCTGAGTGAGTAAACCGGAGTCACCTAGTGCAG”, the binding signal was 8690 fluorescence intensity (a.u.).
Take “ACCAACCGTAAAATTTTGCATGTGTCACTGACAGCTTGTCCGGAGTCACCTAGTGCAG”: the binding signal is 5620 fluorescence intensity (a.u.).
As to “CACCGCTACCTACGTTGTCGCCACCCACGTCAATAATCCTCGGAGTCACCTAGTGCAG”, the binding signal was 6310 fluorescence intensity (a.u.).
On to “ACGCAGGGGAGGGAGGGAGCGGTGGTGGTGGCGGCGGCGCCGGAGTCACCTAGTGCAG”, for which the binding signal is 4240 fluorescence intensity (a.u.).
Turning to “TCCGATACGCCGAGGGAGTACACGCTAGCGACACTACCGGCGGAGTCACCTAGTGCAG”, the binding signal is 3200 fluorescence intensity (a.u.).
Turning to “ATCAACTTTCGGCTTTACACCGTTGACGTAAGAATGCTTACGGAGTCACCTAGTGCAG”, the binding signal is 3620 fluorescence intensity (a.u.).
With “GAGCCCACGTGGGCCCCATATGTCAGCCTCACTCCTCCCTCGGAGTCACCTAGTGCAG” the figure was 8840 fluorescence intensity (a.u.).
On to “ATGTTGCTTAATTTTCCTTAGCAAATATTCAAGTCAAGGTCGGAGTCACCTAGTGCAG”, for which the binding signal was 3160 fluorescence intensity (a.u.).
On to “GCACGAAGCCATCGGCGTCCACCCACCACATCGACGCGACCGGAGTCACCTAGTGCAG”, for which the binding signal is 3140 fluorescence intensity (a.u.).
On to “ATCCACGTGGCAATGTATTAATCCAGTCAGCAACATCTCACGGAGTCACCTAGTGCAG”, for which the binding signal was 12400 fluorescence intensity (a.u.).
On to “CCTCCGGCCTACGGGCTCGCTTCGGCCGAACGCTACGCCACGGAGTCACCTAGTGCAG”, for which the binding signal was 3240 fluorescence intensity (a.u.).
To “GATATATTAGCCGAAACTGTCACGTGGACGACATATTAGCCGGAGTCACCTAGTGCAG” belongs 5960 fluorescence intensity (a.u.); to “GGGCCTGCCGTTGACTGACCCGTTGACACGGCCACACGCACGGAGTCACCTAGTGCAG”, 3320 fluorescence intensity (a.u.); to “ATGAACTCGGCCTCGTTTATCTCTGACATGTGGGACCGGACGGAGTCACCTAGTGCAG”, 3200 fluorescence intensity (a.u.).
Take “ACCCAAAATATGCACTCCCTCTGTCAAAGAGCCAACTGCTCGGAGTCACCTAGTGCAG”: the binding signal is 3240 fluorescence intensity (a.u.).
In the case of “CCCTCCTCTCCGTACGTGGAGCGCATGCAAATCCCCTCGCCGGAGTCACCTAGTGCAG”, the binding signal is 4460 fluorescence intensity (a.u.).
Take “ACCTCTTGCTGCTGCTCATTCTGATGTCATTCAAAGAGATCGGAGTCACCTAGTGCAG”: the binding signal is 4480 fluorescence intensity (a.u.).
Turning to “CGCCGACGTCGGCCGCGCCGAGGCCGTCCTCGCAAACGCCCGGAGTCACCTAGTGCAG”, the binding signal is 3500 fluorescence intensity (a.u.).
As to “TCTTCTCTCCTCCACCTCAGCGTTTAGTTGGCTTACAGTCCGGAGTCACCTAGTGCAG”, the binding signal was 9290 fluorescence intensity (a.u.).
For the sequence “ATGTGTAGGTCAAAATATATGTCAGCAATTATAAGAGTACCGGAGTCACCTAGTGCAG”, the binding signal is 3530 fluorescence intensity (a.u.).
On to “CTTTTGACATTATATTAGACAGATGGTAATCAAATTTAACCGGAGTCACCTAGTGCAG”, for which the binding signal was 3360 fluorescence intensity (a.u.).
Turning to “GAAAGATTATGTAACAAGATTGTACTGTCATGATGACATGCGGAGTCACCTAGTGCAG”, the binding signal is 3840 fluorescence intensity (a.u.).
With “CTACAAATACCCACGCAACACAGCGTCAGCGTGGCCATCGCGGAGTCACCTAGTGCAG” the figure was 9040 fluorescence intensity (a.u.).
With “CGATCGCCACCGGCGCAGCGAGATCTGATTGATATTGATCCGGAGTCACCTAGTGCAG” the figure was 19300 fluorescence intensity (a.u.); with “CCTGGGGTTTATGTGGCGCCGTGTCGCCGTCTGTATACCACGGAGTCACCTAGTGCAG”, 3910 fluorescence intensity (a.u.); with “CGCCTGTCAAATCCTAGTCAGGGAATCTGTCTTCCATCTACGGAGTCACCTAGTGCAG”, 5640 fluorescence intensity (a.u.).
On to “CCTCCATCTCCACGTACTTCTCCACGCCTCCATCGATGGACGGAGTCACCTAGTGCAG”, for which the binding signal is 6010 fluorescence intensity (a.u.).
Regarding “CCCGTGCGCCCACCCTCTCCCTTCTCTTGTCTCTCCCCTTCGGAGTCACCTAGTGCAG”, the binding signal is 3250 fluorescence intensity (a.u.).
To “AGCGACACGCGGCGGCGGGCAGAGCTGGAGAGGTGGGGCACGGAGTCACCTAGTGCAG” belongs 3880 fluorescence intensity (a.u.).
To “CTTTTAGTCGATCAGGTGAACATGACCCATTGTGTGATTCCGGAGTCACCTAGTGCAG” belongs 3390 fluorescence intensity (a.u.).
